# Reference: PubChem BioAssay AID652259 (Drosophila RNAi Screening Center, 2013)
# Assay: 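Genome-wide hunt for genes that control Wingless pathway activity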 (primary screen)
# Cells: Drosophila clone 8 imaginal disc epithelial cells
# Knock-down reagent: long dsRNA against Drosophila genes
# Challenge: pathway stimulated by co-transfected Wingless expression plasmid
# Measured: 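Firefly luciferase from a tcf-site Wingless reporter, measured alongside co-transfected Renilla luciferase that tracks transfection; pathway stimulated by a Wingless plasmid; the firefly-to-Renilla ratio is not deposited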
# Direction: firefly reporter light: higher = more Wg reporter light, before normalisation; Renilla control light: higher = more transfected or surviving cells
# Active means: 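a knock-down is a candidate when at least two out of four statistical tests show it departing from its plate mean; one test alone signals a weak candidate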
# Calls: active = candidate regulator (raises or lowers reporter); inactive = not a candidate
# In all, the deposit lists about 22,000 reagents; shown is a random part of those that have a named target and a result. Over the whole deposit, 233 (1.1%) got an active call. 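Light values are raw, unnormalised plate reads; the ratio scores behind the reporter calls were not deposited.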 The numbers tell different reagents against one gene apart. Not stated in the record: the amount of reagent, the time to read-out, the dose of the treatment.
target,reagent,"reporter change call, replicate 1","firefly reporter light, replicate 1","firefly reporter light, replicate 2","Renilla control light, replicate 1","Renilla control light, replicate 2",Outcome
Best1 (Bestrophin 1),1,,18921,6.81e5,4333,3.03e5,inactive
CG3014,1,,9938,,2832,,inactive
lncRNA:CR33218 (long non-coding RNA:CR33218),1,,6.59e5,5.81e5,3.19e5,2.65e5,inactive
CG1492,1,,16136,,4363,,inactive
Tbcb (Tubulin-binding cofactor B),1,,13142,,5404,,inactive
cpx (complexin),1,,3424,,1428,,inactive
CG13601,1,,3489,6264,1691,2674,inactive
CG5084,1,Wg reporter activity lowered,6113,,1892,,inactive
CG13847,1,Wg reporter activity raised,3752,8134,476,653,active
eIF3f1 (eukaryotic translation initiation factor 3 subunit f1),1,,11740,,3264,,inactive
CG18281,1,,8979,,4320,,inactive
l(2)34Fc (lethal (2) 34Fc),1,,3235,6212,1283,2678,inactive
adp (adipose),1,,19068,,4816,,inactive
ND-51L1 (NADH dehydrogenase (ubiquinone) 51 kDa subunit-like 1),1,,4587,,1881,,inactive
SPoCk (Secretory Pathway Calcium atpase),1,,11716,,4307,,inactive
SPoCk (Secretory Pathway Calcium atpase),2,,10705,,3371,,inactive
SPoCk (Secretory Pathway Calcium atpase),3,,11589,,4579,,inactive
SPoCk (Secretory Pathway Calcium atpase),4,,14322,,3943,,inactive
vsg (visgun),1,,7000,,2818,,inactive
Cyp313a3 (Cytochrome P450 313a3),1,,17984,,5505,,inactive
CG17739,1,,10115,,2948,,inactive
DNAlig3 (DNA ligase 3),1,,20924,,4051,,inactive
CG42366,1,,2800,5528,626,1408,inactive
Liprin-gamma,1,,3980,,1131,,inactive
GstE7 (Glutathione S transferase E7),1,,18577,,5345,,inactive
mRpL42 (mitochondrial ribosomal protein L42),1,,3440,3920,887,1737,inactive
CG30392,1,,4.07e5,4.04e5,1.24e5,1.17e5,inactive
CG14811,1,,22841,,16688,,inactive
CG3337,1,,4074,,1125,,inactive
CG12517,1,,1928,3830,849,2187,inactive
CG18557,1,,2096,5511,928,2402,inactive

Next part; the last 8 above are carried over.
target,reagent,"reporter change call, replicate 1","firefly reporter light, replicate 1","firefly reporter light, replicate 2","Renilla control light, replicate 1","Renilla control light, replicate 2",Outcome
Liprin-gamma,1,,3980,,1131,,inactive
GstE7 (Glutathione S transferase E7),1,,18577,,5345,,inactive
mRpL42 (mitochondrial ribosomal protein L42),1,,3440,3920,887,1737,inactive
CG30392,1,,4.07e5,4.04e5,1.24e5,1.17e5,inactive
CG14811,1,,22841,,16688,,inactive
CG3337,1,,4074,,1125,,inactive
CG12517,1,,1928,3830,849,2187,inactive
CG18557,1,,2096,5511,928,2402,inactive
snky (sneaky),1,,7154,,2711,,inactive
dsb (debris buster),1,,6259,,994,,inactive
dsb (debris buster),2,,7941,,2874,,inactive
CG15873,1,,2416,7460,695,2913,inactive
fiz (fezzik),1,,2713,11059,1117,4613,inactive
7B2,1,,12945,,4083,,inactive
Mesh1 (Metazoan SpoT homolog-1),1,,4597,,1926,,inactive
CG8586,1,,12061,,4109,,inactive
coro (Coronin),1,,16977,,5488,,inactive
coro (Coronin),2,,5.47e5,6.00e5,2.29e5,2.36e5,inactive
CG15611,1,,13562,,2763,,inactive
CG15611,2,,5948,,2603,,inactive
FMRFa (FMRFamide),1,,2864,6763,651,1926,inactive
Elp2 (Elongator complex protein 2),1,,6352,,2071,,inactive
CG6765,1,,1352,4736,940,2152,inactive
"Edem1 (ER degradation enhancer, mannosidase alpha-like 1)",1,,2325,3680,1021,1517,inactive
cass (cassowary),1,,6018,,2768,,inactive
CG14691,1,,17298,,4930,,inactive
CG13775,1,,2692,6155,907,947,inactive
CG10910,1,Wg reporter activity lowered,8400,,2902,,inactive
CG12069,1,,9129,,3175,,inactive
lncRNA:CR43498 (long non-coding RNA:CR43498),1,,3841,,1557,,inactive
CG31076,1,,6432,,3056,,inactive
CG32547,1,,5172,,2000,,inactive
CG32547,2,,5388,,2200,,inactive
CG32547,3,,22231,,10177,,inactive
CG32547,4,,17490,,7875,,inactive
vtd (verthandi),1,,20754,,8352,,inactive
CG5235,1,,6259,,2908,,inactive
Septin5 (Septin 5),1,,10035,,2777,,inactive
CG43293,1,,4215,,1709,,inactive
lark,1,,7257,,2042,,inactive
CG9300,1,,6698,,3408,,inactive
"Arpc5 (Actin-related protein 2/3 complex, subunit 5)",1,,2073,6666,887,1987,inactive
Osi9 (Osiris 9),1,,4681,,983,,inactive
osp (outspread),1,,24208,,11922,,inactive
osp (outspread),2,,6050,,1603,,inactive
CG10333,1,,14749,,4233,,inactive
Mettl14 (Methyltransferase like 14),1,,11120,,4353,,inactive
CG10344,1,Wg reporter activity raised,6252,8828,578,3600,inactive
bur (burgundy),1,,8256,,2570,,inactive
CG18810,1,,2166,7922,682,2912,inactive
